Assay results taken from paper PMC12222027, “In situ structure of a bacterial flagellar motor at subnanometre resolution reveals adaptations for increased torque” (Nature Microbiology, 2025).

Target: T1, C-terminal FLAG-tagged PflB (C. jejuni 81-176, plasmid pDAR3414) (C. jejuni 81-176)
T1 sequence: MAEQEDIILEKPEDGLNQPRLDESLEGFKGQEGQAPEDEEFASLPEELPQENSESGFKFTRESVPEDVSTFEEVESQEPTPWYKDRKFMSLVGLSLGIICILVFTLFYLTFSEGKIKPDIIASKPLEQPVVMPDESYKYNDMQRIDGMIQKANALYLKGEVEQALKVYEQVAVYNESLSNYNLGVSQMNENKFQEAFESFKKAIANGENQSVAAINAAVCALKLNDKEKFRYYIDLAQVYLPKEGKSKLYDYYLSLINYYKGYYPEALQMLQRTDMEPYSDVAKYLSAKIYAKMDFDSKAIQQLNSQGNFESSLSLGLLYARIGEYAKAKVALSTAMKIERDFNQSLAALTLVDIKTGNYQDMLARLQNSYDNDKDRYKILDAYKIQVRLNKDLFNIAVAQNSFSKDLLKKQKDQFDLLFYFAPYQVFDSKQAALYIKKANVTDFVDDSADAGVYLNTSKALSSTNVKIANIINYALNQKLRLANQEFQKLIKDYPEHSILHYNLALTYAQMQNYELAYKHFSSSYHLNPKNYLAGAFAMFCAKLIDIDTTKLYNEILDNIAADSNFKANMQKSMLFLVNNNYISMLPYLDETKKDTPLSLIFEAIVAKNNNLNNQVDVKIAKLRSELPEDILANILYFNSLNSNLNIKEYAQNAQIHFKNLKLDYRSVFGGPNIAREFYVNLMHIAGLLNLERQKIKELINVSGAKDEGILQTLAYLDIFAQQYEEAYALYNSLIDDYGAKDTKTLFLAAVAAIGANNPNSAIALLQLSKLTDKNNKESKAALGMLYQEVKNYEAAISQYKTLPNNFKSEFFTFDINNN
Assay: affinity purification with mass spectrometry; C. jejuni 81-176 ΔpflA or ΔpflB expressing C-terminal FLAG-tagged PflA or PflB; 0.1% formaldehyde crosslinking; osmotic lysis; α-FLAG M2 affinity resin; LC–MS/MS; FLAG-tag alone as negative control

FliL (C. jejuni 81-176, endogenous) (from UniProt A0A0H3PIF6)
binding: binds

No constants are given. Whether binding was seen depends on the method and setting. In cells and extracts the contact can be indirect. A yes stands for co-enrichment or nearness to the bait. Other partners may have been found. Tags and fused reporters may be left off the sequences shown.
